Measurements reported in PMC10879213.
These are yes or no findings as the source states them, for the method shown. Binding seen in cells or lysates may run through a third protein. Some entries that bind do so weakly or less than the wild type.

By UniProt entry, the sequences of proteins in these tests, tags left out.
UniProt P18850: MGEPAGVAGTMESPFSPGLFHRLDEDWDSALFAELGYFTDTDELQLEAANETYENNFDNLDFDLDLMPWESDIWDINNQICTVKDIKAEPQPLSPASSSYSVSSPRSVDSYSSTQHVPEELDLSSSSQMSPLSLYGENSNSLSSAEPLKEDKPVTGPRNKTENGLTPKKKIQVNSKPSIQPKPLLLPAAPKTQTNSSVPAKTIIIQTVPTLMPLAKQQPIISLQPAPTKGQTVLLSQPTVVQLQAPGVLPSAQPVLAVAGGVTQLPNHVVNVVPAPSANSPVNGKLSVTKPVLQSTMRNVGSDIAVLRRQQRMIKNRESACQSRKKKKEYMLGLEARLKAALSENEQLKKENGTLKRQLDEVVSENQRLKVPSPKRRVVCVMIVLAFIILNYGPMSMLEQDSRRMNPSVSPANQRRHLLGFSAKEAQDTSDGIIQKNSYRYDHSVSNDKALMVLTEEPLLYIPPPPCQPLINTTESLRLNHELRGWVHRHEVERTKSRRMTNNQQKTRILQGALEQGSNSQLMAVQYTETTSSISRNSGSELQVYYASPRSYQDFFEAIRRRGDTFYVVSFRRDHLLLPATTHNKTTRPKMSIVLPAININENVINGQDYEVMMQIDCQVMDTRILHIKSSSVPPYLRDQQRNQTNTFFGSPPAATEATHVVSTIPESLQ

Biological target: activated transcription factor 6 (ATF6) (human (in lysate of human HCC cell lines)) (UniProt P18850)
Assay: co-IP; CoIP using ATF6; cells lysed in 1% NP40, pre-blocked with 50% protein A/G agarose, primary antibody overnight at 4 °C, protein A/G agarose, washed with lysis solution, WB analysis; cell line not stated

Row | Binder | binding
1 | NFYB subunit of the NF-Y complex (protein, UniProt P25208 1-207) MTMDGDSSTTDASQLGISADYIGGSHYVIQPHDDTEDSMNDHEDTNGSKESFREQDIYLPIANVARIMKNAIPQTGKIAKDAKECVQECVSEFISFITSEASERCHQEKRKTINGEDILFAMSTLGFDSYVEPLKLYLQKFREAMKGEKGIGGAVTATDGLSEELTEEAFTNQLPAGLITTDGQQQNVMVYTTSYQQISGVQQIQFS | binds
2 | NFYC subunit of the NF-Y complex (protein, UniProt Q13952 1-458) MSTEGGFGGTSSSDAQQSLQSFWPRVMEEIRNLTVKDFRVQELPLARIKKIMKLDEDVKMISAEAPVLFAKAAQIFITELTLRAWIHTEDNKRRTLQRNDIAMAITKFDQFDFLIDIVPRDELKPPKRQEEVRQSVTPAEPVQYYFTLAQQPTAVQVQGQQQGQQTTSSTTTIQPGQIIIAQPQQGQTTPVTMQVGEGQQVQIVQAQPQGQAQQAQSGTGQTMQVMQQIITNTGEIQQIPVQLNAGQLQYIRLAQPVSGTQVVQGQIQTLATNAQQGQRNASQGKPRRCLKETLQITQTEVQQGQQQFSQFTDGQRNSVQQARVSELTGEAEPREVKATGNSTPCTSSLPTTHPPSHRAGASCVCCSQPQQSSTSPPPSDALQWVVVEVSGTPNQLETHRELHAPLPGMTSLSPLHPSQQLYQIQQVTMPAGQDLAQPMFIQSANQPSDGQAPQVTGD | binds
